Binding signal data for 54 sequences are collected here from paper PMC7819943, “Rice protein-binding microarrays: a tool to detect cis-acting elements near promoter regions in rice”.

Sequences of proteins named here, by UniProt entry; tags and fusion partners are left off.
UniProt Q0JBA9, entry or part of it: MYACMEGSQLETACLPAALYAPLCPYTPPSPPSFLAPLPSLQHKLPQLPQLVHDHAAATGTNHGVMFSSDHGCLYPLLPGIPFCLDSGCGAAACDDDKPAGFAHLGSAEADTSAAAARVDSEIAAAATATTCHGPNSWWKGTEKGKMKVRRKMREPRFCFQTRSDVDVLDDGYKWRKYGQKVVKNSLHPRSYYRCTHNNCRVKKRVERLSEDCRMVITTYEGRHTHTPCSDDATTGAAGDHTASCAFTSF

The other results are listed elsewhere or left out.

The target in this assay is OsWRKY34 (Oryza sativa, UniProt Q0JBA9 1-250). In words: protein-binding microarray (RPBM); PBS, 2% BSA, 51.3 ng/ul salmon testes DNA, 50 uM zinc acetate, 200 nM TF, 25 C, 1 h; high values mean tight binding. The settings on record: protein: recombinant; tags: N-terminal polyhistidine and DsRed monomer fusion (pET32a); label: CyDye5-dUTP incorporated in the synthesized complementary strand; 3' TTTTT single-stranded linker to array surface; dsDNA, one strand shown. The method in brief:
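Binding signal is reported as fluorescence intensity per feature (arbitrary units) from an Axon 4000B scanner. Incubation used 200 nM of each Ni–NTA-purified, N-terminally polyhistidine- and DsRed-fused transcription factor from E. coli BL21-CodonPlus on a double-stranded custom Agilent array for 1 h at 25 °C, with 50 µM zinc acetate in the buffer, followed by washing.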
Take “AGGTAGAGAGGGTGACATTTTTATCTTTTTGTTTAACCGACGGAGTCACCTAGTGCAG”: the binding signal was 8430 fluorescence intensity (a.u.).

In the case of “TTCATCATGTCATGAGGTGGCATTCTAGTGATTATTGCGACGGAGTCACCTAGTGCAG”, the binding signal was 8640 fluorescence intensity (a.u.).

As for “CGCGTCGCGTTCCCATTTTGACTTGCCTTTCCTAGACTCTCGGAGTCACCTAGTGCAG”, the binding signal is 8550 fluorescence intensity (a.u.).

Regarding “TAGTATGTTTCTTTGTCCCTGTAGACCTGATTACTAACCTCGGAGTCACCTAGTGCAG”, the binding signal is 9520 fluorescence intensity (a.u.).

Take “ATCTGTCTGTCTGTCTGTCTGTTCTGTTGTATCCTTTCTTCGGAGTCACCTAGTGCAG”: the binding signal was 12000 fluorescence intensity (a.u.).

Take “ACGTGGCTTGGCTTATTTTTTTCCCTTACGTAGTCTCTCGCGGAGTCACCTAGTGCAG”: the binding signal was 8560 fluorescence intensity (a.u.).

For “TACTCACAAAATAATCCTCCCTGTGCTTCTACCTGCCATTCGGAGTCACCTAGTGCAG”, the binding signal was 8470 fluorescence intensity (a.u.).

“TTCCAGACAAGTACTCCATTCCATTTTCCTCTCCATCGCGCGGAGTCACCTAGTGCAG”: the binding signal is 8600 fluorescence intensity (a.u.).

Regarding “ACCCACATATACTAGTACACATGGCCACGTCAGCTCCATTCGGAGTCACCTAGTGCAG”, the binding signal was 8990 fluorescence intensity (a.u.).

Turning to “TTTTATCTTTTCCAATGAACTTTTCCGTCATTTTTTTATTCGGAGTCACCTAGTGCAG”, the binding signal is 8100 fluorescence intensity (a.u.).

“AATTCACACATTCATCTGCTTGCTGAGTACCAGTATAAATCGGAGTCACCTAGTGCAG”: the binding signal was 9310 fluorescence intensity (a.u.).

For “CAAACCTGTCTGCATGCATGTCTGTCTGCACTCTGCATCCCGGAGTCACCTAGTGCAG”, the binding signal is 8610 fluorescence intensity (a.u.).

Turning to “CCGCATCTTATTGTACTCGCTCTTATTTCATAGCATCATCCGGAGTCACCTAGTGCAG”, the binding signal is 9390 fluorescence intensity (a.u.).

Turning to “TTGTGGGTTGACTTCAATTTATAGGTGAGTATTGCGAGTTCGGAGTCACCTAGTGCAG”, the binding signal is 10800 fluorescence intensity (a.u.).

Turning to “CAGTCAGGTAGCAGTGTAGCACTTGTCTTCTACGGCACTACGGAGTCACCTAGTGCAG”, the binding signal is 8410 fluorescence intensity (a.u.).

As to “AACCTATCTTCTTGCTAGCCTCCTCGAATCTCGGGGACGACGGAGTCACCTAGTGCAG”, the binding signal is 8190 fluorescence intensity (a.u.).

Take “CCCGATGCGCTCGGCACTCTCTGTGCGGTGGGGAAAATTGCGGAGTCACCTAGTGCAG”: the binding signal was 9030 fluorescence intensity (a.u.).

For “GATATTTGCTACTAGTACCGCTGACTGCAGTTGCCCTTCTCGGAGTCACCTAGTGCAG”, the binding signal is 9470 fluorescence intensity (a.u.).

As to “TCCCGTGTTTTCCTGCGTTTTACAATCCTCTGTTTTACACCGGAGTCACCTAGTGCAG”, the binding signal was 8260 fluorescence intensity (a.u.).

“GGATGAGCTCTTCATCCTCGCCTGCTTCTGATCATTCTTCCGGAGTCACCTAGTGCAG”: the binding signal is 8100 fluorescence intensity (a.u.).

On to “GCTGACATGTGGGCCCACTGTTTTTAATTTTTCCAAGATACGGAGTCACCTAGTGCAG”, for which the binding signal was 8180 fluorescence intensity (a.u.).

In the case of “ATCGACGTCGCGACAACGCTAGGGTTTGGCACGGGCGGGGCGGAGTCACCTAGTGCAG”, the binding signal is 9490 fluorescence intensity (a.u.).

Regarding “ATCCTCTGTTTTACACTTACATTCCTATCAAAATCCTACGCGGAGTCACCTAGTGCAG”, the binding signal is 11600 fluorescence intensity (a.u.).

For “GCTATCTTTACCTGTGTTACATTGCCAGCAGTTACATTCTCGGAGTCACCTAGTGCAG”, the binding signal is 8770 fluorescence intensity (a.u.).

Take “TTCGGGCATACGCCACCCCGCCTTGTCATCCACCGCGCCCCGGAGTCACCTAGTGCAG”: the binding signal was 8470 fluorescence intensity (a.u.).

With “TTTCTGTCTACATTACCACCGCCTGTGCCTCCGCCGCGGCCGGAGTCACCTAGTGCAG”, the binding signal is 12400 fluorescence intensity (a.u.).

As to “TTTTGGGATGTGTTTTCTTATTTTTCTTATGCATGTAGCACGGAGTCACCTAGTGCAG”, the binding signal is 8730 fluorescence intensity (a.u.).

“TATGGATCTCATGCAATTTCTTTCTGCTTTTCTAGGATATCGGAGTCACCTAGTGCAG”: the binding signal was 8650 fluorescence intensity (a.u.).

For “GTTTTGTTGTTCTTTGTCATATATGTGGTTGGTTCCTACCCGGAGTCACCTAGTGCAG”, the binding signal was 9610 fluorescence intensity (a.u.).

For “TGTTAATTTTTGATCTGCTACACTGGTGCCTGTTTCTACACGGAGTCACCTAGTGCAG”, the binding signal was 8620 fluorescence intensity (a.u.).

For the sequence “TCTACATGTTTGCTGCTGGATTTTACACATATTCCATCTTCGGAGTCACCTAGTGCAG”, the binding signal was 8340 fluorescence intensity (a.u.).

Consider “GTAATTAATTAACAACTCACCGTCCTTATATAATTGTTTTCGGAGTCACCTAGTGCAG”, for which the binding signal is 10900 fluorescence intensity (a.u.).

As to “CGTCCGTCCGGCGACCCGGTTTGACCCACCCCAGTAGCGTCGGAGTCACCTAGTGCAG”, the binding signal is 9280 fluorescence intensity (a.u.).

Turning to “CATATCCTGTACAAATCCGGGAATCGCGTACTCTCACAATCGGAGTCACCTAGTGCAG”, the binding signal was 8670 fluorescence intensity (a.u.).

Consider “GGTCCTGTGTAATTTTCTTCCGCGATGGCCACACGTGACGCGGAGTCACCTAGTGCAG”, for which the binding signal was 9990 fluorescence intensity (a.u.).

Consider “GGTCTGGTTTTCCGTGTGTGCACGGTCGGGGTGCGCGTGGCGGAGTCACCTAGTGCAG”, for which the binding signal was 14300 fluorescence intensity (a.u.).

“CCATGTATGTGGGCTACCTTAAATTCAGGTTATTTCTTTACGGAGTCACCTAGTGCAG”: the binding signal was 8192 fluorescence intensity (a.u.).

Turning to “TTTGAGTTGGTTTTGAGATTTTTTTCATTGTAATTTATTTCGGAGTCACCTAGTGCAG”, the binding signal was 8050 fluorescence intensity (a.u.).

For the sequence “ATATGTTGAAACTTTCTCTATGTTACATCTGCTTTCTAATCGGAGTCACCTAGTGCAG”, the binding signal is 8120 fluorescence intensity (a.u.).

As for “CTTGTTTGGTGTGTTCAACTTGTCTTGAACTATACTCTCTCGGAGTCACCTAGTGCAG”, the binding signal was 8290 fluorescence intensity (a.u.).

Take “CCCACCTACCTACAGTACTCCACCAGATCAATCCCAACACCGGAGTCACCTAGTGCAG”: the binding signal was 9890 fluorescence intensity (a.u.).

Take “TGCCACCACCTTACCCTTTGCCAACATGCATCCGCTCCAACGGAGTCACCTAGTGCAG”: the binding signal was 19100 fluorescence intensity (a.u.).

Turning to “TGTAATTAGTTATTTTTTTCGTTTATATTTAATACTCTATCGGAGTCACCTAGTGCAG”, the binding signal was 9460 fluorescence intensity (a.u.).

“TATTGTGAATACCATACACTGAGATTTTACACACCGACTCCGGAGTCACCTAGTGCAG”: the binding signal was 8720 fluorescence intensity (a.u.).

On to “TCGGTGGGTGCCGGGCGGAGCGGTTTTTGAGGGAGGGGTCCGGAGTCACCTAGTGCAG”, for which the binding signal was 17600 fluorescence intensity (a.u.).

Turning to “TATTATTTAAGTCGTGTTGGCTTGAAGCATGCATAATTTGCGGAGTCACCTAGTGCAG”, the binding signal is 8790 fluorescence intensity (a.u.).

Regarding “CGACTATAAAGTGGTTTCCCATTTTCTGCTGTATTTTGACCGGAGTCACCTAGTGCAG”, the binding signal was 10100 fluorescence intensity (a.u.).

For “CCACGTGGGCCCCACGAGTCATTCTCACCCCTCATCTTCTCGGAGTCACCTAGTGCAG”, the binding signal was 10900 fluorescence intensity (a.u.).

Regarding “CTCCCGAGGAAGATGACGAGGAGTCAGTCAACAGTTGACTCGGAGTCACCTAGTGCAG”, the binding signal was 8130 fluorescence intensity (a.u.).

Consider “GCTGTACTGCTCTGCCACCACTTCTCCACTCCACTCCACTCGGAGTCACCTAGTGCAG”, for which the binding signal is 8970 fluorescence intensity (a.u.).

On to “GGTCGGTCGCTCTCTCTCGCTCCTCGGCTCCTCTCCATTTCGGAGTCACCTAGTGCAG”, for which the binding signal is 8160 fluorescence intensity (a.u.).

For “TGCGGGGCGCAAGGCGCGCGGTAGGGGAGGGGTTAGCGCTCGGAGTCACCTAGTGCAG”, the binding signal was 8190 fluorescence intensity (a.u.).

As to “GACGTACCAACTCAGCACTCAGCACTGCTTCCTTTTTCATCGGAGTCACCTAGTGCAG”, the binding signal was 9020 fluorescence intensity (a.u.).

Consider “ATCCTCTTCTTCTCTTCTCCTCTTCTCTTCACATTCTCTTCGGAGTCACCTAGTGCAG”, for which the binding signal is 8530 fluorescence intensity (a.u.).
